PubChem BioAssay AID1508597 | Cure First, 2020
Shown is a random part of about 2,100 reagents. 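Calls flag viability under 80% in either arm, not effects specific to rucaparib; the reference for percent is not stated.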 Unmarked entries are inactive. A reagent listed more than once was tested more than once; the source does not tell the runs apart. Not given: the 100% reference.

- Aim: 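Knock-downs altering ovarian cancer cell survival with or without PARP inhibitor rucaparib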 (primary screen)
- Cells: human ovarian carcinoma lines grown from tumours: OCI-P5x (papillary serous) and OCI-C5x (clear cell)
- Knock-down reagent: siRNA pool against human genes, 1.25 pmol siRNA per well
- Timing: 72 h or 96 h, depending on the cell culture
- Treatment: rucaparib 20 µM (about IC30) or vehicle, present until read-out
- Detection: 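ATP luminescence measured at 72 or 96 h according to the culture, then normalised and expressed as percent viability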
- Reading the numbers: viability, normalised: higher = more viable cells remaining
- Hit rule: 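a well counts as a hit if its normalised viability is under 80 percent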
- Meaning of the calls: active = viability under 80%; inactive = viability 80% or more

target	rucaparib or vehicle	cell line	technical replicate	viability, normalised (%)
CLDN2 (GeneID 9075)	Rucaparib	OCI-C5x (clear cell)	1	49.1 (active)
CLDN2 (GeneID 9075)	Rucaparib	OCI-C5x (clear cell)	2	29.4 (active)
CLDN2 (GeneID 9075)	Rucaparib	OCI-C5x (clear cell)	3	35.4 (active)
CLDN2 (GeneID 9075)	Rucaparib	OCI-P5x (serous)	1	65.9 (active)
CLDN2 (GeneID 9075)	Rucaparib	OCI-P5x (serous)	2	59.5 (active)
CLDN2 (GeneID 9075)	Rucaparib	OCI-P5x (serous)	3	59.9 (active)
CLDN2 (GeneID 9075)	Vehicle	OCI-C5x (clear cell)	1	26.7 (active)
CLDN2 (GeneID 9075)	Vehicle	OCI-C5x (clear cell)	2	29.6 (active)
CLDN2 (GeneID 9075)	Vehicle	OCI-C5x (clear cell)	3	29 (active)
CLDN2 (GeneID 9075)	Vehicle	OCI-P5x (serous)	1	74 (active)
CLDN2 (GeneID 9075)	Vehicle	OCI-P5x (serous)	2	74.7 (active)
CLDN2 (GeneID 9075)	Vehicle	OCI-P5x (serous)	3	77.3 (active)
REV1 (GeneID 51455)	Rucaparib	OCI-C5x (clear cell)	1	44.1 (active)
REV1 (GeneID 51455)	Rucaparib	OCI-C5x (clear cell)	1	26.6 (active)
REV1 (GeneID 51455)	Rucaparib	OCI-C5x (clear cell)	2	45.4 (active)
REV1 (GeneID 51455)	Rucaparib	OCI-C5x (clear cell)	2	34.2 (active)
REV1 (GeneID 51455)	Rucaparib	OCI-C5x (clear cell)	3	59.1 (active)
REV1 (GeneID 51455)	Rucaparib	OCI-C5x (clear cell)	3	44.4 (active)
REV1 (GeneID 51455)	Rucaparib	OCI-P5x (serous)	1	101
REV1 (GeneID 51455)	Rucaparib	OCI-P5x (serous)	1	44.1 (active)
REV1 (GeneID 51455)	Rucaparib	OCI-P5x (serous)	2	48.9 (active)
REV1 (GeneID 51455)	Rucaparib	OCI-P5x (serous)	2	85.6
REV1 (GeneID 51455)	Rucaparib	OCI-P5x (serous)	3	70.8 (active)
REV1 (GeneID 51455)	Rucaparib	OCI-P5x (serous)	3	46.9 (active)
REV1 (GeneID 51455)	Vehicle	OCI-C5x (clear cell)	1	45.3 (active)
REV1 (GeneID 51455)	Vehicle	OCI-C5x (clear cell)	1	45.4 (active)
REV1 (GeneID 51455)	Vehicle	OCI-C5x (clear cell)	2	64.3 (active)
REV1 (GeneID 51455)	Vehicle	OCI-C5x (clear cell)	2	50.4 (active)
REV1 (GeneID 51455)	Vehicle	OCI-C5x (clear cell)	3	51.6 (active)
REV1 (GeneID 51455)	Vehicle	OCI-C5x (clear cell)	3	51 (active)
REV1 (GeneID 51455)	Vehicle	OCI-P5x (serous)	1	58.1 (active)
REV1 (GeneID 51455)	Vehicle	OCI-P5x (serous)	1	81.6
REV1 (GeneID 51455)	Vehicle	OCI-P5x (serous)	2	79.2 (active)
REV1 (GeneID 51455)	Vehicle	OCI-P5x (serous)	2	72.9 (active)
REV1 (GeneID 51455)	Vehicle	OCI-P5x (serous)	3	64.6 (active)
REV1 (GeneID 51455)	Vehicle	OCI-P5x (serous)	3	78.9 (active)
DDX27 (GeneID 55661)	Rucaparib	OCI-C5x (clear cell)	1	65.1 (active)
DDX27 (GeneID 55661)	Rucaparib	OCI-C5x (clear cell)	2	44.7 (active)
DDX27 (GeneID 55661)	Rucaparib	OCI-C5x (clear cell)	3	50.6 (active)
DDX27 (GeneID 55661)	Rucaparib	OCI-P5x (serous)	1	68 (active)
DDX27 (GeneID 55661)	Rucaparib	OCI-P5x (serous)	2	102
DDX27 (GeneID 55661)	Rucaparib	OCI-P5x (serous)	3	84.3
DDX27 (GeneID 55661)	Vehicle	OCI-C5x (clear cell)	1	48.1 (active)
DDX27 (GeneID 55661)	Vehicle	OCI-C5x (clear cell)	2	44.4 (active)
DDX27 (GeneID 55661)	Vehicle	OCI-C5x (clear cell)	3	49.4 (active)
DDX27 (GeneID 55661)	Vehicle	OCI-P5x (serous)	1	60.1 (active)
DDX27 (GeneID 55661)	Vehicle	OCI-P5x (serous)	2	91.4
DDX27 (GeneID 55661)	Vehicle	OCI-P5x (serous)	3	97.2
MYOD1 (GeneID 4654)	Rucaparib	OCI-C5x (clear cell)	1	62.6 (active)
MYOD1 (GeneID 4654)	Rucaparib	OCI-C5x (clear cell)	2	43 (active)
MYOD1 (GeneID 4654)	Rucaparib	OCI-C5x (clear cell)	3	38.5 (active)
MYOD1 (GeneID 4654)	Rucaparib	OCI-P5x (serous)	1	43.7 (active)
MYOD1 (GeneID 4654)	Rucaparib	OCI-P5x (serous)	2	33 (active)
MYOD1 (GeneID 4654)	Rucaparib	OCI-P5x (serous)	3	46.3 (active)
MYOD1 (GeneID 4654)	Vehicle	OCI-C5x (clear cell)	1	45.2 (active)
MYOD1 (GeneID 4654)	Vehicle	OCI-C5x (clear cell)	2	32.3 (active)
MYOD1 (GeneID 4654)	Vehicle	OCI-C5x (clear cell)	3	41 (active)
MYOD1 (GeneID 4654)	Vehicle	OCI-P5x (serous)	1	40.4 (active)
MYOD1 (GeneID 4654)	Vehicle	OCI-P5x (serous)	2	44.5 (active)
MYOD1 (GeneID 4654)	Vehicle	OCI-P5x (serous)	3	50.7 (active)

3 of these entries, set out differently:
target | rucaparib or vehicle | cell line | technical replicate | viability, normalised (%)
REV1 (GeneID 51455) | Vehicle | OCI-P5x (serous) | 2 | 79.2 (active)
REV1 (GeneID 51455) | Vehicle | OCI-P5x (serous) | 2 | 72.9 (active)
REV1 (GeneID 51455) | Vehicle | OCI-P5x (serous) | 3 | 64.6 (active)
